# Laboratory results from the supplement of paper PMC8728848.
# The list shows a part of the results.
# B1: CD4 (Rattus norvegicus), P05540 (protein)
# chain: MCRGFSFRHLLPLLLLQLSKLLVVTQGSTSITAYKSEGESAEFSFPLNLGEESLQGELRWKAEKAPSSQSWITFSLKNQKVSVQKSTSNPKFQLSETLPLTLQIPQVSLQFAGSGNLTLTLDRGILYQEVNLVVMKVTQPDSNTLTCEVMGPTSPKMRLILKQENQEARVSRQEKVIQVQAPEAGVWQCLLSEGEEVKMDSKIQVLSKGLNSGGGSGGGTGGGDLAPQMLRELQETNAALQDVRELLRQQVKEITFLKNTVMECDACGLDRNLPPLAPLGPHPETLVKVKDAEDQLGARVGYIELDLNSGKILESFRPEERFPMMSTFKVLLCGAVLSRIDAGQEQLGRRIHYSQNDLVEYSPVTEKHLTDGMTVRELCSAAITMSDNTAANLLLTTIGGPKELTAFLHNMGDHVTRLDRWEPELNEAIPNDERDTTMPVAMATTLRKLLTGELLTLASRQQLIDWMEADKVAGPLLRSALPAGWFIADKSGAGERGSRGIIAALGPDGKPSRIVVIYTTGSQATMDERNRQIAEIGASLIKHW
# Experiments:
# Assay in all cases: glycan array binding signal (z-score within array); higher = stronger binding
# Conditions in all cases: glycan notation: IUPAC condensed, linker removed
# [1] = molecular target: Fuc(a1-2)Gal(b1-4)GlcNAc(b1-3)Gal(b1-4)GlcNAc(b1-2)Man(a1-3)[Fuc(a1-2)Gal(b1-4)GlcNAc(b1-3)Gal(b1-4)GlcNAc(b1-2)Man(a1-6)]Man(b1-4)GlcNAc(b1-4)GlcNAc
# How it was run: (§1)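 Glycan array binding is given as a within-array Z-score, which can be read as non-binding when negative. The arrays, 3228 of them, came from the Consortium for Functional Glycomics database and were retained only where the protein sequence was available. Z-scores were averaged across arrays of the same protein sequence at different concentrations or buffers and across linkers.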
# [2] = molecular target: Fuc(a1-2)Gal(b1-4)GlcNAc(b1-3)Gal(b1-4)GlcNAc(b1-3)Gal(b1-4)GlcNAc
# How it was run: as §1
# [3] = molecular target: Fuc(a1-2)Gal(b1-4)GlcNAc(b1-3)GalNAc
# How it was run: as §1
# [4] = molecular target: Fuc(a1-2)Gal(b1-4)GlcNAc(b1-3)[Fuc(a1-2)Gal(b1-4)GlcNAc(b1-6)]GalNAc
# How it was run: as §1
# [5] = molecular target: Fuc(a1-2)Gal(b1-4)GlcNAc(b1-3)[Fuc(a1-3)[Gal(b1-4)]GlcNAc(b1-6)]Gal(b1-4)Glc
# How it was run: as §1
# [6] = molecular target: Fuc(a1-2)Gal(b1-4)GlcNAc(b1-6)GalNAc
# How it was run: as §1
# [7] = molecular target: Fuc(a1-2)Gal(b1-4)GlcNAc6S
# How it was run: as §1
# [8] = molecular target: Fuc(a1-2)Gal(b1-4)[Fuc(a1-3)]GlcNAc
# How it was run: as §1
# [9] = molecular target: Fuc(a1-2)Gal(b1-4)[Fuc(a1-3)]GlcNAc(b1-2)Man(a1-3)[Fuc(a1-2)Gal(b1-4)[Fuc(a1-3)]GlcNAc(b1-2)Man(a1-6)]Man(b1-4)GlcNAc(b1-4)[Fuc(a1-6)]GlcNAc
# How it was run: as §1
# [10] = molecular target: Fuc(a1-2)Gal(b1-4)[Fuc(a1-3)]GlcNAc(b1-2)[Fuc(a1-2)Gal(b1-4)[Fuc(a1-3)]GlcNAc(b1-4)]Man(a1-3)[Fuc(a1-2)Gal(b1-4)[Fuc(a1-3)]GlcNAc(b1-2)Man(a1-6)]Man(b1-4)GlcNAc(b1-4)GlcNAc
# How it was run: as §1
# [11] = molecular target: Fuc(a1-2)Gal(b1-4)[Fuc(a1-3)]GlcNAc(b1-3)Gal(b1-4)[Fuc(a1-3)]GlcNAc
# How it was run: as §1
# [12] = molecular target: Fuc(a1-2)Gal(b1-4)[Fuc(a1-3)]GlcNAc(b1-3)Gal(b1-4)[Fuc(a1-3)]GlcNAc(b1-3)Gal(b1-4)[Fuc(a1-3)]GlcNAc
# How it was run: as §1
# [13] = molecular target: Fuc(a1-2)Gal(b1-4)[Fuc(a1-3)]GlcNAc(b1-3)GalNAc
# How it was run: as §1
# [14] = molecular target: Fuc(a1-2)Gal(b1-4)[Fuc(a1-3)]GlcNAc(b1-3)[Neu5Ac(a2-6)Gal(b1-4)GlcNAc(b1-6)]Gal(b1-4)Glc
# How it was run: as §1
# [15] = molecular target: Fuc(a1-2)Gal3S(b1-4)GlcNAc
# How it was run: as §1
# [16] = molecular target: Fuc(a1-2)Gal6S(b1-3)GlcNAc
# How it was run: as §1
# [17] = molecular target: Fuc(a1-2)Gal6S(b1-3)GlcNAc6S
# How it was run: as §1
# Fuc(a1-2)Gal6S(b1-4)Glc = molecular target: Fuc(a1-2)Gal6S(b1-4)Glc
# How it was run: as §1
# [18] = molecular target: Fuc(a1-2)Gal6S(b1-4)Glc6S
# How it was run: as §1
# Fuc(a1-2)[Gal(a1-3)]Gal = molecular target: Fuc(a1-2)[Gal(a1-3)]Gal
# How it was run: as §1
# [19] = molecular target: Fuc(a1-2)[Gal(a1-3)]Gal(b1-3)GalNAc
# How it was run: as §1
# [20] = molecular target: Fuc(a1-2)[Gal(a1-3)]Gal(b1-3)GalNAc(b1-3)Gal(a1-4)Gal(b1-4)Glc
# How it was run: as §1
# [21] = molecular target: Fuc(a1-2)[Gal(a1-3)]Gal(b1-3)GlcNAc
# How it was run: as §1
# [22] = molecular target: Fuc(a1-2)[Gal(a1-3)]Gal(b1-3)GlcNAc(b1-2)Man(a1-3)[Fuc(a1-2)[Gal(a1-3)]Gal(b1-3)GlcNAc(b1-2)Man(a1-6)]Man(b1-4)GlcNAc(b1-4)GlcNAc
# How it was run: as §1
# [23] = molecular target: Fuc(a1-2)[Gal(a1-3)]Gal(b1-3)GlcNAc(b1-2)Man(a1-3)[Fuc(a1-2)[Gal(a1-3)]Gal(b1-3)GlcNAc(b1-2)Man(a1-6)]Man(b1-4)GlcNAc(b1-4)[Fuc(a1-6)]GlcNAc
# How it was run: as §1
# [24] = molecular target: Fuc(a1-2)[Gal(a1-3)]Gal(b1-3)GlcNAc(b1-3)GalNAc
# How it was run: as §1
# [25] = molecular target: Fuc(a1-2)[Gal(a1-3)]Gal(b1-3)GlcNAc(b1-6)GalNAc
# How it was run: as §1
# [26] = molecular target: Fuc(a1-2)[Gal(a1-3)]Gal(b1-4)Glc
# How it was run: as §1
# [27] = molecular target: Fuc(a1-2)[Gal(a1-3)]Gal(b1-4)GlcNAc
# How it was run: as §1
# [28] = molecular target: Fuc(a1-2)[Gal(a1-3)]Gal(b1-4)GlcNAc(b1-2)Man
# How it was run: as §1
binder,measurement,setting,value
B1,glycan array binding signal (z-score),[1],0.697
same,glycan array binding signal (z-score),[2],-0.758
same,glycan array binding signal (z-score),[3],0.968
same,glycan array binding signal (z-score),[4],-0.242
same,glycan array binding signal (z-score),[5],-0.381
same,glycan array binding signal (z-score),[6],-0.816
same,glycan array binding signal (z-score),[7],0.201
same,glycan array binding signal (z-score),[8],-0.219
same,glycan array binding signal (z-score),[9],-0.032
same,glycan array binding signal (z-score),[10],-0.141
same,glycan array binding signal (z-score),[11],-0.822
same,glycan array binding signal (z-score),[12],1.16
same,glycan array binding signal (z-score),[13],0.857
same,glycan array binding signal (z-score),[14],0.682
same,glycan array binding signal (z-score),[15],0.124
same,glycan array binding signal (z-score),[16],-1.13
same,glycan array binding signal (z-score),[17],-0.318
same,glycan array binding signal (z-score),Fuc(a1-2)Gal6S(b1-4)Glc,2.49
same,glycan array binding signal (z-score),[18],-0.572
same,glycan array binding signal (z-score),Fuc(a1-2)[Gal(a1-3)]Gal,-1.05
same,glycan array binding signal (z-score),[19],0.079
same,glycan array binding signal (z-score),[20],-0.166
same,glycan array binding signal (z-score),[21],0.175
same,glycan array binding signal (z-score),[22],0.253
same,glycan array binding signal (z-score),[23],-1.13
same,glycan array binding signal (z-score),[24],1.08
same,glycan array binding signal (z-score),[25],0.261
same,glycan array binding signal (z-score),[26],-1.27
same,glycan array binding signal (z-score),[27],-1.39
same,glycan array binding signal (z-score),[28],-1.08

# Pulled one by one from the entries so far (2):
binder,measurement,setting,value
B1,glycan array binding signal (z-score),[17],-0.318
same,glycan array binding signal (z-score),[11],-0.822
